Reference: patent US20180142018A1 (NOVIMMUNE, published 2018)
Results are given in words; binding and its absence hold for the method and conditions named. Some entries that bind do so weakly or less than the wild type.

Key:
[1] = target: cynomolgus CD19 (cynomolgus monkey); assay: FACS on cynomolgus PBMC gated on CD20+ B lymphocytes, 30 and 3 µg/mL
[2] = target: cynomolgus CD19 (cynomolgus monkey); assay: FACS on CHO cells transfected with cynomolgus CD19

binding [1] | binding [2] | Binder
binds | binds | 7F11 antibody (antibody, human IgG1, V domains shown, also called human IgG1 7F11 anti-CD19 antibody) VH: EVQLVQSGAEVKKPGESLKISCKGSGYSFTSYWIGWVRQMPGKGLEWMGIIYPGDSDTRYSPSFQGQVTISADKSISTAYLQWSSLKASDTAMYYCARGVSGIYNLHGFDIWGQGTLVTVSS VL: DIQMTQSPSSLSASVGDRVTITCRASQSISSYLNWYQQKPGKAPKLLIYAASSLQSGVPSRFSGSGSGTDFTLTISSLQPEDFATYYCQQGMWDNPFTFGQGTKVEIK
binds | binds | 9G8 antibody (antibody, human IgG1, V domains shown, also called human IgG1 9G8 anti-CD19 antibody) VH: EVQLVQSGAEVKKPGESLKISCKGSGYSFTSYWIGWVRQMPGKGLEWMGIIYPGDSDTRYSPSFQGQVTISADKSISTAYLQWSSLKASDTAMYYCARGVSGIYNLHGFDIWGQGTLVTVSS VL: DIQMTQSPSSLSASVGDRVTITCRASQSISSYLNWYQQKPGKAPKLLIYAASSLQSGVPSRFSGSGSGTDFTLTISSLQPEDFATYYCQQGRFGSPFTFGQGTKVEIK
binds | binds | 5F5 antibody (antibody, human IgG1, V domains shown, also called human IgG1 5F5 anti-CD19 antibody) VH: EVQLVQSGAEVKKPGESLKISCKGSGYSFTSYWIGWVRQMPGKGLEWMGIIYPGDSDTRYSPSFQGQVTISADKSISTAYLQWSSLKASDTAMYYCARGISGIYNLHGFDIWGQGTLVTVSS VL: DIQMTQSPSSLSASVGDRVTITCRASQSISSYLNWYQQKPGKAPKLLIYAASSLQSGVPSRFSGSGSGTDFTLTISSLQPEDFATYYCQQASLDSPLTFGQGTKVEIK
binds | binds | F6 antibody (antibody, human IgG1, V domains shown, also called human IgG1 F6 anti-CD19 antibody) VH: EVQLVQSGAEVKKPGESLKISCKGSGYSFTSYWIGWVRQMPGKGLEWMGIIYPGDSDTRYSPSFQGQVTISADKSISTAYLQWSSLKASDTAMYYCARVWYYDFWSGADAFDIWGQGTLVTVSS VL: EIVMTQSPATLSVSPGERATLSCRASQSVSSNLAWYQQKPGQAPRLLIYGASTRATGIPARFSGSGSGTEFTLTISSLQSEDFAVYYCQQGSLEAPQTFGQGTKVEIK
